Measured values: paper PMC7819943, “Rice protein-binding microarrays: a tool to detect cis-acting elements near promoter regions in rice”
The list shows a part of the results.

The sequences below were run against T1, OsSMF1 (Oryza sativa, UniProt Q6ZLB0 1-436) (assay: protein-binding microarray (RPBM); PBS, 2% BSA, 51.3 ng/ul salmon testes DNA, 50 uM zinc acetate, 200 nM TF, 25 C, 1 h; high values mean tight binding). Conditions: protein: recombinant; tags: N-terminal polyhistidine and DsRed monomer fusion (pET32a); chain copies: 2; label: CyDye5-dUTP incorporated in the synthesized complementary strand; 3' TTTTT single-stranded linker to array surface; dsDNA, one strand shown.
T1 sequence: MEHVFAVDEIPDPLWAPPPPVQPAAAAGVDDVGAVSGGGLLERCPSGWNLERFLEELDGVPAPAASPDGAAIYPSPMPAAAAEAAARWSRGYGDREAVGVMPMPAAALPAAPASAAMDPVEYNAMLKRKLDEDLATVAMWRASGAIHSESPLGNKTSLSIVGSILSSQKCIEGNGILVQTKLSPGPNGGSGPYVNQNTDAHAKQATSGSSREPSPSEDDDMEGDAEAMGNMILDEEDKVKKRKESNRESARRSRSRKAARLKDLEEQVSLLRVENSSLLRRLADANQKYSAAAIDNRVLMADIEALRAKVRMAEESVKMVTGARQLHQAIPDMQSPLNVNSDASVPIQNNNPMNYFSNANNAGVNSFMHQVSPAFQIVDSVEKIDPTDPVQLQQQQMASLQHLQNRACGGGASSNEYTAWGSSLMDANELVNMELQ
Summary of the method: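 Transcription factors, each fused N-terminally to a polyhistidine tag and DsRed, were expressed in E. coli BL21-CodonPlus and purified on Ni–NTA. A custom Agilent array was made double-stranded by primer extension with Cy5-dUTP and blocked with 2% BSA. It was incubated with 200 nM protein in PBS, 2% BSA, salmon testes DNA and 50 µM zinc acetate at 25 °C for 1 h, then washed. The binding signal is per-feature fluorescence intensity (arbitrary units) read on an Axon 4000B scanner.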
In the case of “TTGTCCATCAATGGAGATGATGATGCCATGATCAAATGATCGGAGTCACCTAGTGCAG”, the binding signal was 3370 fluorescence intensity (a.u.).
With “CGCTTGCGCTGTGGTGCTGCGGCGCCGCCGTCGTGGCGTCCGGAGTCACCTAGTGCAG” the binding signal was 4800 fluorescence intensity (a.u.).
For “GGTCAGACCGCACCGTGACACGTCGACTGCAACCTAGCGGCGGAGTCACCTAGTGCAG”, the binding signal was 13600 fluorescence intensity (a.u.).
With “CCGCTTCTGAGCACACGCTGCACGTAATCGCGAACGCGCGCGGAGTCACCTAGTGCAG” the binding signal was 5300 fluorescence intensity (a.u.).
With “AATGTGTCCTAGCTCCCCTTGAATGGAGCACTGACGTTGCCGGAGTCACCTAGTGCAG” the binding signal was 4250 fluorescence intensity (a.u.).
With “CTACTGGGCCCACGCGTCGGCGACATGTGGCAGGGAGGGTCGGAGTCACCTAGTGCAG” the binding signal was 4560 fluorescence intensity (a.u.).
“TACGCATCGGCGAGAGACGGCAATGCGTGGCAAGCTGCGACGGAGTCACCTAGTGCAG” was tested, and the binding signal was 4140 fluorescence intensity (a.u.).
For “CGACTCCAACGCGAGATCGCCACGTCGTGCCAACCAGCTCCGGAGTCACCTAGTGCAG”, the binding signal was 5980 fluorescence intensity (a.u.).
With “GTGAGAATTATTCCACATAAGAAAGTAGTAAGAAGGATGCCGGAGTCACCTAGTGCAG” the binding signal was 26900 fluorescence intensity (a.u.).
With “CACCGTGGAAGGCCGGACGGTTGATGAGGTCATACGCTAACGGAGTCACCTAGTGCAG” the binding signal was 3450 fluorescence intensity (a.u.).
For “ATGAAATTTGGTCGGCCACTCTTTCTGCCGACCTGGCAAACGGAGTCACCTAGTGCAG”, the binding signal was 4070 fluorescence intensity (a.u.).
“GTGGTGTGTGCATATATATCTTCCATGTAATAAAACAAATCGGAGTCACCTAGTGCAG” was tested, and the binding signal was 21400 fluorescence intensity (a.u.).
With “CAATATACTAACAAATTGTGACATGTCTAAGGTTTGGCATCGGAGTCACCTAGTGCAG” the binding signal was 4600 fluorescence intensity (a.u.).
In the case of “ACCGCACCTCCACATCACCACATGCCTCATCGTTGCTCCACGGAGTCACCTAGTGCAG”, the binding signal was 8700 fluorescence intensity (a.u.).
With “ATTCGGTGGGTTGAGGCAGTGATGTGGTGAGAGGAGAAAGCGGAGTCACCTAGTGCAG” the binding signal was 3440 fluorescence intensity (a.u.).
With “GCGCCCCAACTTCCAACTCACAGTTCCTCCTCGTCATTCACGGAGTCACCTAGTGCAG” the binding signal was 3520 fluorescence intensity (a.u.).
“AGCGTCACCTCAATGCCACGTGTGATAAAGACCTAGTTAACGGAGTCACCTAGTGCAG” was tested, and the binding signal was 17200 fluorescence intensity (a.u.).
“GGATGGCCCACCACGTCAGCATCTGCACGTTTTGCTTCATCGGAGTCACCTAGTGCAG” was tested, and the binding signal was 20900 fluorescence intensity (a.u.).
“AACCACTGTAGAATTACACACAAGCAGTGCCAAGGGCCCACGGAGTCACCTAGTGCAG” was tested, and the binding signal was 3480 fluorescence intensity (a.u.).
“TGTCATGTTTATTATCTTAATTTTCTGGATTAAAATATACCGGAGTCACCTAGTGCAG” was tested, and the binding signal was 21800 fluorescence intensity (a.u.).
In the case of “GATCCGAATGACGCCACAGTAAAGTAATCCATAGTATCTACGGAGTCACCTAGTGCAG”, the binding signal was 27300 fluorescence intensity (a.u.).
In the case of “TAGTTGTTGCTGAATTATTCTAGTACTGCGAGAAGCTGTGCGGAGTCACCTAGTGCAG”, the binding signal was 26300 fluorescence intensity (a.u.).
With “CTCACCGTTGGATCGCGCGCGCGAGAGAGAGAGACGCCTTCGGAGTCACCTAGTGCAG” the binding signal was 3320 fluorescence intensity (a.u.).
For “CTTGAGGTCATCCCTGTCATTGATCTCTACAAGTTCGAGCCGGAGTCACCTAGTGCAG”, the binding signal was 3230 fluorescence intensity (a.u.).
In the case of “ACGGCTGCCTCCATTGTTGCCGTGGCAACAACCTCGTCGTCGGAGTCACCTAGTGCAG”, the binding signal was 3430 fluorescence intensity (a.u.).
“CGGCCGGTGAAGGTGAGTCAGCGGACGGTGGAGAGGGAGGCGGAGTCACCTAGTGCAG” was tested, and the binding signal was 6040 fluorescence intensity (a.u.).
In the case of “TTTGCATAGAAATGTGACATGGCATGTCCATGTGGCGATTCGGAGTCACCTAGTGCAG”, the binding signal was 10900 fluorescence intensity (a.u.).
For “ATACATTGTCAGCCTGTCATGTGCAATGCTATTTATGTCCCGGAGTCACCTAGTGCAG”, the binding signal was 3950 fluorescence intensity (a.u.).
For “CTAGATAACAAGACGCATTACCAAGTAGCCAACACCACGCCGGAGTCACCTAGTGCAG”, the binding signal was 37500 fluorescence intensity (a.u.).
With “GCTTGTTTCTTACCATACGGGTCCACACAAGCAACACATACGGAGTCACCTAGTGCAG” the binding signal was 3520 fluorescence intensity (a.u.).
In the case of “GAAATTCAAATTATACCAATTTAAATAGTTGGGATCAACACGGAGTCACCTAGTGCAG”, the binding signal was 21800 fluorescence intensity (a.u.).
For “GTTCAATAGTATAGCCAACGACTAGCTCCGATTCATTTATCGGAGTCACCTAGTGCAG”, the binding signal was 26800 fluorescence intensity (a.u.).
“GGACGATGGCGAGAAGAGGACGACGATACTGTACGCGGGCCGGAGTCACCTAGTGCAG” was tested, and the binding signal was 4410 fluorescence intensity (a.u.).
With “TTAGTCTGAATGGAGCAACACCAGTCACCTTGATAGGATACGGAGTCACCTAGTGCAG” the binding signal was 4700 fluorescence intensity (a.u.).
“CTTCACTCGGTCCAGCCACCGCTCGCGCTACGCGCGCGTCCGGAGTCACCTAGTGCAG” was tested, and the binding signal was 3210 fluorescence intensity (a.u.).
“ACTTCCTGGTTGGGCACACGTGTCTCCACGTGGTTGGTCCCGGAGTCACCTAGTGCAG” was tested, and the binding signal was 23100 fluorescence intensity (a.u.).
“GCGACTACTCCGCCGTCCACGGTTCGTCGCTGTCGCCCGTCGGAGTCACCTAGTGCAG” was tested, and the binding signal was 3140 fluorescence intensity (a.u.).
With “TCTAATCAACCCAGTCACATTTTGAGTGGAGTCGACACCACGGAGTCACCTAGTGCAG” the binding signal was 4360 fluorescence intensity (a.u.).
For “AATATAGGGTTCTTAATACGATAACGTAATTAAACATTTACGGAGTCACCTAGTGCAG”, the binding signal was 22400 fluorescence intensity (a.u.).
With “CGCCTGTCAGTGTGGACTGTGTCATACATTAGCAGCCGCTCGGAGTCACCTAGTGCAG” the binding signal was 3640 fluorescence intensity (a.u.).
In the case of “AAGTTATACTTAAAGTATTATAAATAATAAAGTAAGTCACCGGAGTCACCTAGTGCAG”, the binding signal was 34100 fluorescence intensity (a.u.).
“TGGGAAGAAGGAACCTTAAACAATTTCTTGGTACACTACTCGGAGTCACCTAGTGCAG” was tested, and the binding signal was 28000 fluorescence intensity (a.u.).
In the case of “AGCTTCAGCCGTGGCGTGGTGTCACCCTTCACCACGGCCACGGAGTCACCTAGTGCAG”, the binding signal was 19500 fluorescence intensity (a.u.).
With “TTTCATCACCACGTGTCTTCCGCGTATTAAGATGTAACCCCGGAGTCACCTAGTGCAG” the binding signal was 7240 fluorescence intensity (a.u.).
“ATAGCCGGCCCGGTGACGACATCCTCTGGATACACTCGCACGGAGTCACCTAGTGCAG” was tested, and the binding signal was 27500 fluorescence intensity (a.u.).
For “CCCTGCATGCGCCCGTATACCGTATGCCGCGCGCCCACTGCGGAGTCACCTAGTGCAG”, the binding signal was 3580 fluorescence intensity (a.u.).
“TCATTTCTAATGTAAATTATCTTTTGCGTAAGTAATTTCTCGGAGTCACCTAGTGCAG” was tested, and the binding signal was 3230 fluorescence intensity (a.u.).
With “GAAGGGAGCCAAAAGAAGATGCAGCACTGCCGACGTGGAGCGGAGTCACCTAGTGCAG” the binding signal was 8060 fluorescence intensity (a.u.).
In the case of “CTCTAATTTATCTATAGCCAACCTAATAGCTCATTAATACCGGAGTCACCTAGTGCAG”, the binding signal was 7500 fluorescence intensity (a.u.).
With “AAGCTGAGGGACCTTCGGTGTACTTTTCCCCAGAATTTACCGGAGTCACCTAGTGCAG” the binding signal was 35800 fluorescence intensity (a.u.).
In the case of “CATCCACGCCGGAGACAGCCCATGCACCGATTCCACGGACCGGAGTCACCTAGTGCAG”, the binding signal was 3190 fluorescence intensity (a.u.).
For “GGCCACACATAACTTGTACCCCACCTGTCATCGTCACCGTCGGAGTCACCTAGTGCAG”, the binding signal was 5770 fluorescence intensity (a.u.).
With “TAGCAGAGGCAGAGACGATCAGACGAATGGCTGGCCTCTCCGGAGTCACCTAGTGCAG” the binding signal was 22700 fluorescence intensity (a.u.).
With “TTCAGAATCAAACCTCATTTCCCATGCATAAAGTAGTATGCGGAGTCACCTAGTGCAG” the binding signal was 20700 fluorescence intensity (a.u.).
